Reference: US20250213694A1 (SHANGHAI SIMNOVA BIOTECHNOLOGY, published 2025)
These are yes or no findings as the source states them, for the method shown. Some entries that bind do so weakly or less than the wild type.

Chains of the proteins cited; added tags and fusions are not shown. Residues count along the entry.
UniProt Q02223, residues 1-54: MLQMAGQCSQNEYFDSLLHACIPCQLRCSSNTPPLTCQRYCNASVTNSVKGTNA

Molecular target: human BCMA protein (human) (UniProt Q02223)
Assay: phage library panning and clone identification

binding: binds
B1: VHH2 (VHH)
VHH: QVQLVESGGGLVQSRGSLRLSCAASESISSIHIMAWYRRAPGKQRELVAGIRNDGSTVYADSAKGRFTISRDNAKNTVYLQMNSLKPEDTAVYYCNADQGFGSYSEWERRSRWGQGTEVTVSS
